Results are given in words; binding and its absence hold for the method and conditions named. In cells and extracts the contact can be indirect. Some entries that bind do so weakly or less than the wild type. Tags and fused reporters may be left off the sequences shown.
Key:
[1] = molecular target: T1, MRAP2-3Flag (Melanocortin Receptor Accessory Protein 2 with 3Flag tag) (human) (UniProt Q96G30); test: co-IP; cells co-transfected with 2HA-receptor and MRAP2-3Flag; lysed in 0.1% n-dodecyl-β-maltoside in PBS with protease inhibitors; IP with mouse anti-HA or mouse anti-Flag M2 overnight at 4°C, protein-G Dynabeads; western blot with rabbit anti-HA or anti-Flag; control: beads only
T1 sequence (chain, detected as a non-glycosylated and a glycosylated form (PNGase F sensitive)): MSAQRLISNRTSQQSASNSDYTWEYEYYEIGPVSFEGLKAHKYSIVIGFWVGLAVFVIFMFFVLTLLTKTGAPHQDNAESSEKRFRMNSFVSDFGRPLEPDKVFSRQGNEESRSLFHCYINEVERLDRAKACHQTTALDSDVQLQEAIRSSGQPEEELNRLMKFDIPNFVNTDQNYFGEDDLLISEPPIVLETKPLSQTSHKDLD

Amino acid sequences for entries named in this document (tags omitted).
UniProt Q8TCW9: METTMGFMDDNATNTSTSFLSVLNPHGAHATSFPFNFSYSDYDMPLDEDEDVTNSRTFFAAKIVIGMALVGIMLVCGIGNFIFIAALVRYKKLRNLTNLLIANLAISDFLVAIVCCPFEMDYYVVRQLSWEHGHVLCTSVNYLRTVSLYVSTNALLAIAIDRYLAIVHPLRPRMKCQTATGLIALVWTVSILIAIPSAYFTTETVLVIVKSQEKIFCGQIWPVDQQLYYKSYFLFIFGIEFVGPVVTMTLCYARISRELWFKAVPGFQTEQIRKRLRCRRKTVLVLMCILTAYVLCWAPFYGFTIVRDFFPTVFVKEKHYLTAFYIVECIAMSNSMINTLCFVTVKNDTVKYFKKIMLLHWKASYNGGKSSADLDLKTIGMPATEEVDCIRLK
UniProt Q8NFJ6: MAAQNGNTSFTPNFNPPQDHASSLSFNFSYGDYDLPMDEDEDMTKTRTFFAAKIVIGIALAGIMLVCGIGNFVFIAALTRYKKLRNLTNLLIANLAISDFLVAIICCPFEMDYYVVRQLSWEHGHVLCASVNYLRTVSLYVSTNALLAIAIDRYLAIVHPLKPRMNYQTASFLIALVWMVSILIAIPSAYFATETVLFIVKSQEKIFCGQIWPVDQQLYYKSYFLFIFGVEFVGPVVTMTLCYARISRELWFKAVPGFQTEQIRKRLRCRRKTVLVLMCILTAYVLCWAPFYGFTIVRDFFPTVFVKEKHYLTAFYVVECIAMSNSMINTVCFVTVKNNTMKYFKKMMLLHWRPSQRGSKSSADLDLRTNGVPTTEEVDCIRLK

[2] = molecular target: T2, MRAP2-Y1 (MRAP2 C-terminally fused to the complementary fragment of YFP) (human) (UniProt Q96G30); test: split reporter; BiFC with split YFP (Y1 and Y2) in live CHO-K1 cells; 1 hr at room temperature before imaging; fluorescence microscopy; single fusion proteins alone gave no fluorescence
T2 sequence: T1 sequence (chain, detected as a non-glycosylated and a glycosylated form (PNGase F sensitive))

[3] = molecular target: 2HA-PKR1 (prokineticin receptor 1 with N-terminal 2HA tag) (human) (UniProt Q8TCW9); test: co-IP; cells co-transfected with 2HA-receptor and MRAP2-3Flag; lysed in 0.1% n-dodecyl-β-maltoside in PBS with protease inhibitors; IP with mouse anti-HA or mouse anti-Flag M2 overnight at 4°C, protein-G Dynabeads; western blot with rabbit anti-HA or anti-Flag; control: beads only
[4] = molecular target: 2HA-PKR2 (prokineticin receptor 2 with N-terminal 2HA tag) (human) (UniProt Q8NFJ6); test: as above

2HA-PKR1 (prokineticin receptor 1 with N-terminal 2HA tag) (from UniProt Q8TCW9 1-393)
binding [1]: binds

2HA-PKR2 (prokineticin receptor 2 with N-terminal 2HA tag) (from UniProt Q8NFJ6 1-384)
binding [1]: binds

PKR1-Y2 (PKR1 C-terminally fused to a fragment of YFP) (from UniProt Q8TCW9 1-393) (receptor)
binding [2]: binds

PKR2-Y2 (PKR2 fused to a fragment of YFP) (from UniProt Q8NFJ6 1-384) (receptor)
binding [2]: binds

B1: MRAP2-3Flag (Melanocortin Receptor Accessory Protein 2 with 3Flag tag) (protein, UniProt Q96G30 1-205)
chain: T1 sequence (chain, detected as a non-glycosylated and a glycosylated form (PNGase F sensitive))
modifications: detected as a non-glycosylated and a glycosylated form (PNGase F sensitive)
binding [3]: binds
binding [4]: binds

From PMC4786424
